Publication PMC7351111
Results are given in words; binding and its absence hold for the method and conditions named. In cells and extracts the contact can be indirect. These calls come from enrichment with a bait or labelling near it, and not all partners need be listed.

Chains of the proteins cited; added tags and fusions are not shown.
UniProt Q9BXW9: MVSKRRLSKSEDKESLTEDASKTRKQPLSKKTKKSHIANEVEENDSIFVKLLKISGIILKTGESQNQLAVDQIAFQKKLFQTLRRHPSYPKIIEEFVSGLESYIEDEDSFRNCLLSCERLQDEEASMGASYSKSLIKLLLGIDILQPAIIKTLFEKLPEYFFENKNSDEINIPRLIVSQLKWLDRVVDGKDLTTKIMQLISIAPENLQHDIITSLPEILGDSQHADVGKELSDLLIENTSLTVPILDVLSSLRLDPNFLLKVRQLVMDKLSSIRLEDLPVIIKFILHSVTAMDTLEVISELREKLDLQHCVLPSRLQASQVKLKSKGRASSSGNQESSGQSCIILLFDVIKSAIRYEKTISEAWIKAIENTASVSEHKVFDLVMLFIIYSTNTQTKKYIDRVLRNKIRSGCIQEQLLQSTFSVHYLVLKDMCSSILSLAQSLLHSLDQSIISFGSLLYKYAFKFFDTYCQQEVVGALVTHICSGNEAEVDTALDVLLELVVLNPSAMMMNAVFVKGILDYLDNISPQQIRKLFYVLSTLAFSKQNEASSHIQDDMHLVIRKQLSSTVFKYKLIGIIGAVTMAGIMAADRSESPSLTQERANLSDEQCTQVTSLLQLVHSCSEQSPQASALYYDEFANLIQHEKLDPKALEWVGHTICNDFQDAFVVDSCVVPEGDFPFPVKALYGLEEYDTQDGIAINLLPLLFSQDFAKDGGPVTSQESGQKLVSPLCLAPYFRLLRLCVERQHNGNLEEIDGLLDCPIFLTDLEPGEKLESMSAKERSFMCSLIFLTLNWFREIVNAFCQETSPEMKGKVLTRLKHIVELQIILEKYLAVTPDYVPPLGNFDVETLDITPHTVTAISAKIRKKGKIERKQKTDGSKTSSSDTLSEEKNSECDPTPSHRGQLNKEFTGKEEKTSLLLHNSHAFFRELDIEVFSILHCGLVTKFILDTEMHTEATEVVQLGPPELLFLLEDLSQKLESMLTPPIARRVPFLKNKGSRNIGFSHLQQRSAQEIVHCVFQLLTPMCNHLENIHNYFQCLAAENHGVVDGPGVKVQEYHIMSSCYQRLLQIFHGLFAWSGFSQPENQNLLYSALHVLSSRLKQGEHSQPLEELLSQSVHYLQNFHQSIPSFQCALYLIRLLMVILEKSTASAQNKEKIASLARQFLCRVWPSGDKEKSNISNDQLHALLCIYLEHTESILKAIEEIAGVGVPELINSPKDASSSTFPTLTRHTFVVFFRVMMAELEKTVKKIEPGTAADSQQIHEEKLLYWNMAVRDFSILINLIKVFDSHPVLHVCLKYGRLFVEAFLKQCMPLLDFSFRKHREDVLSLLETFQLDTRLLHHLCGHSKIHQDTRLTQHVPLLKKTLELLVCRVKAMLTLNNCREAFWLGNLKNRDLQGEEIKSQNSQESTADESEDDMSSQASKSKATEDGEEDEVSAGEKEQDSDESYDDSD
UniProt P39748: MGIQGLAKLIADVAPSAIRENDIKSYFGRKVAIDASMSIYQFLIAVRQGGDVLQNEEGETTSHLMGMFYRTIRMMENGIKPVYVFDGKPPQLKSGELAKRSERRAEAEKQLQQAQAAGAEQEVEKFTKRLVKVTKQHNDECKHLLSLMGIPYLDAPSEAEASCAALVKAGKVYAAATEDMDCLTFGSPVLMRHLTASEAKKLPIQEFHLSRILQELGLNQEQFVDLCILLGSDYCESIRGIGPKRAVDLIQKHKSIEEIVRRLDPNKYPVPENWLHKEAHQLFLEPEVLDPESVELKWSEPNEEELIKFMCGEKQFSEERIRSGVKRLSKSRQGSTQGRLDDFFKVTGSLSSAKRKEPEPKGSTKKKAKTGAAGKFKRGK
UniProt P28340: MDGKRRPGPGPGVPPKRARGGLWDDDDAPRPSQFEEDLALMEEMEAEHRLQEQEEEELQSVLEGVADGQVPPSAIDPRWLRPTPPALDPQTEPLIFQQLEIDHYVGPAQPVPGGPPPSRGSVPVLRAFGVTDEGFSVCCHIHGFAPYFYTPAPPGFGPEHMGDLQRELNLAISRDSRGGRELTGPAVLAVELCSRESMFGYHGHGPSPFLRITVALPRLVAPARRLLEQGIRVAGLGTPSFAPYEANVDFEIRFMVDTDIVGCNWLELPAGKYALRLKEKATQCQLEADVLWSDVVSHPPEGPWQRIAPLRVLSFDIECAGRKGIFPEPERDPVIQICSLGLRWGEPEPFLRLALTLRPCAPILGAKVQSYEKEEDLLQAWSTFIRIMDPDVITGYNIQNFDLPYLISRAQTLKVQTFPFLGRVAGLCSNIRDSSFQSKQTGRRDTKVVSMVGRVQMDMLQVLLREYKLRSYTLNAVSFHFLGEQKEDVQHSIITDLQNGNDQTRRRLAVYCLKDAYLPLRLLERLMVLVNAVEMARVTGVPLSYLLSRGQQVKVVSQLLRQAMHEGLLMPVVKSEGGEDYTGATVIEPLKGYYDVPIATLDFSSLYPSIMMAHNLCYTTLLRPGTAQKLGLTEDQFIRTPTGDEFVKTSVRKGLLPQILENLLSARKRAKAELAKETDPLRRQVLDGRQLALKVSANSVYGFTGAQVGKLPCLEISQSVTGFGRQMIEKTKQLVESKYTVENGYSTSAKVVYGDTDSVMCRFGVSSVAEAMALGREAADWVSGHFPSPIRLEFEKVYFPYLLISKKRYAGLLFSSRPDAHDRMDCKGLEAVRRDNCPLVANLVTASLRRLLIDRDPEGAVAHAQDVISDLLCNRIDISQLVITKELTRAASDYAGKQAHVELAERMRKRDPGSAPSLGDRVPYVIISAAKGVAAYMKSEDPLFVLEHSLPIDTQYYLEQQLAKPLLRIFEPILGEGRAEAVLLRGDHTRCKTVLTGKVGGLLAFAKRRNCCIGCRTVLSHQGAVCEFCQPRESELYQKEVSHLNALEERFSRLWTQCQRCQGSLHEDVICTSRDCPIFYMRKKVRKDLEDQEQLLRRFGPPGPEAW
UniProt P49005: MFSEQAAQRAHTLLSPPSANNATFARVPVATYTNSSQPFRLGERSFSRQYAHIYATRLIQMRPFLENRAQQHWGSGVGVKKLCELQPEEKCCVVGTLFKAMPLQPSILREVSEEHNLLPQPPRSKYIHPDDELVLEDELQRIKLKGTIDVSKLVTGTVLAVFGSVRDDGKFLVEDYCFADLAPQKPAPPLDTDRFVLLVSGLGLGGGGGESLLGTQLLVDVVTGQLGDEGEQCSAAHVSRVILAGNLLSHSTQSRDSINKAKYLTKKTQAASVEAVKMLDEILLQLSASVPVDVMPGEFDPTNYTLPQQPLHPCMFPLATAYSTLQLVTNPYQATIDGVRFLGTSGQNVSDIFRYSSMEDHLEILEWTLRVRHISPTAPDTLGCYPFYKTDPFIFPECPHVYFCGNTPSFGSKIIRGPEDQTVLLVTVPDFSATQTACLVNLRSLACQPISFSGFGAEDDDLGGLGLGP
UniProt Q92878: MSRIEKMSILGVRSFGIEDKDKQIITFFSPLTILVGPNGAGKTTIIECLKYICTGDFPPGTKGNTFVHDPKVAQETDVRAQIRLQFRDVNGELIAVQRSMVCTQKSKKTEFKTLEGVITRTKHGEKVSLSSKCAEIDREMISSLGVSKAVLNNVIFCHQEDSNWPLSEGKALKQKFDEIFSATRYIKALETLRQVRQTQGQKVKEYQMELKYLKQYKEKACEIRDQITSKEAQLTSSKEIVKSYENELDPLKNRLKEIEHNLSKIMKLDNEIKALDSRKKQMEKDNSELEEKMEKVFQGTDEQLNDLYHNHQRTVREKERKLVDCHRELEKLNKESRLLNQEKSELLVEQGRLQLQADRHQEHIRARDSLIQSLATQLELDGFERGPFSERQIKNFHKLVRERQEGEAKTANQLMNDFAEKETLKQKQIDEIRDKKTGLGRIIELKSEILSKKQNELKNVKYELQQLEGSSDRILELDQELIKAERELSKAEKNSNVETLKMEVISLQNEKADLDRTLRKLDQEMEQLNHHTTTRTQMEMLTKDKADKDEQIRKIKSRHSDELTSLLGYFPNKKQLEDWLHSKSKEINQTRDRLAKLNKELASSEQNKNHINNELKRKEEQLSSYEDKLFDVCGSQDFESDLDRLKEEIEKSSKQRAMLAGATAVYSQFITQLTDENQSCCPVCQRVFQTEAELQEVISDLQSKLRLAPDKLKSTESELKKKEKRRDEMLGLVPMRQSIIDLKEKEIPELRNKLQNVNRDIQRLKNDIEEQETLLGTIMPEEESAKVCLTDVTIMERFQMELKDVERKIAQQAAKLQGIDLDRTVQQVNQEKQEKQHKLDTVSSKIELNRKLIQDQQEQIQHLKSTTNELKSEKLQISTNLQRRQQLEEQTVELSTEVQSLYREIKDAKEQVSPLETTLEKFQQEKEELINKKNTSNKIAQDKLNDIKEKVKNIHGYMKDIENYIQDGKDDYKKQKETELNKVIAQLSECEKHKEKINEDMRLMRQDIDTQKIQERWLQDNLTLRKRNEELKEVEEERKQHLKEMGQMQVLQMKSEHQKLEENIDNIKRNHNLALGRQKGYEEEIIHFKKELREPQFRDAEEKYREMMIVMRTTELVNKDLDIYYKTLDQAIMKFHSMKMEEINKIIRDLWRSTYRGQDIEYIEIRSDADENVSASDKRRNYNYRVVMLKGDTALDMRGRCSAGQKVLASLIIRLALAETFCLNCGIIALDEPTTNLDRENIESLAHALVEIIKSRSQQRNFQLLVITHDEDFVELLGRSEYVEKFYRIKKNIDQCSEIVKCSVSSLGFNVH

Each substance was assayed against Flag-HA-FANCD2 (stably expressed in HeLa cells) (human) (UniProt Q9BXW9) (assay: affinity purification with mass spectrometry; Flag-HA-FANCD2 purified in two steps (M2 anti-FLAG agarose, then anti-HA Sepharose) from nuclear extract of HeLa S3 cells treated with 160 ng/ml mitomycin C overnight; nuclei treated with Benzonase and 1% formaldehyde for 3 min; TCA precipitate analysed by silver stain and MS/MS).

binding	Substance
binds	FEN1 (endogenous, HeLa) (from UniProt P39748 1-380)
binds	POLD1 (endogenous, HeLa) (from UniProt P28340 1-1107)
binds	POLD2 (endogenous, HeLa) (from UniProt P49005 1-469)
binds	RAD50 (endogenous, HeLa) (from UniProt Q92878 1-1312)
